PubChem BioAssay AID1259306 – Sanger Institute – 2017

- Assay: 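Kinase-wide siRNA screen for partners of targeted drugs in colorectal cancer cells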 (primary screen)
- Cells: human SNU-C5 colorectal cancer cells
- Reagents: siRNA pool against human genes
- Conditions: DMSO vehicle alone, or one anchor drug: BYL719 at 1 µM, cetuximab at 5 µg/ml or trametinib at 10 nM, given 24 h into the assay
- Measurement: 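Viability versus non-targeting pool averaged across replicates, given as fraction and robust z-score, and synergy scores for BYL719, cetuximab or trametinib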
- Reading the numbers: robust z-score, knock-down alone and viability, knock-down alone: higher = more viable cells; synergy score with BYL719: higher = stronger synthetic lethality with BYL719; synergy score with cetuximab: higher = stronger synthetic lethality with cetuximab; synergy score with trametinib: higher = stronger synthetic lethality with trametinib
- Call rule: 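Called essential when the robust z-score for knock-down alone is below -3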
- Calls: active = essential (knock-down alone); inactive = no change alone
This is one part, drawn at random, of 794 deposited reagents. In the full data, 11 (1.4%) were called active. 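Calls reflect knock-down alone; synergy scores play no part, so knock-downs synergising with a drug can be called no change.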 Viability is capped at 1. Reagent sequences are not shown. Not stated in the record: the amount of reagent, the time to read-out.

Target gene | robust z-score, knock-down alone | viability, knock-down alone | synergy score with BYL719 | synergy score with cetuximab | synergy score with trametinib | outcome
MPP2 | -0.477 | 0.798 | 0.075 | -0.159 | -0.0907 | inactive
MAP3K7 | -0.296 | 0.823 | -0.163 | 0.0482 | 0.0359 | inactive
SRPK2 | 0.447 | 0.925 | 0.0983 | 0.18 | -0.0345 | inactive
TNNI3K | 0.989 | 1 | 0 | 0 | -0.0892 | inactive
NADK | 0.572 | 0.943 | -0.0209 | 0.0998 | 0.0871 | inactive
CDKL4 | 0.678 | 0.957 | 0.172 | 0.0041 | 0.0865 | inactive
FES | -2.61 | 0.504 | -0.257 | 0.0476 | -0.293 | inactive
WT1 | -0.391 | 0.81 | 0.00533 | -0.19 | -0.0671 | inactive
CDKN2D | -0.533 | 0.79 | -0.154 | 0.0289 | -0.111 | inactive
NLK | -0.389 | 0.81 | -0.00641 | -0.0826 | -0.0661 | inactive
PAK5 | 0.989 | 1 | 0.0404 | 0.0247 | 0.0481 | inactive
PCK2 | 0.989 | 1 | 0 | 0.128 | 0.0712 | inactive
ITK | -0.932 | 0.735 | -0.162 | 0.0317 | -0.251 | inactive
SRMS | -0.0874 | 0.852 | 0.255 | 0.0775 | -0.0421 | inactive
IKBKB | 0.989 | 1 | 0.0707 | 0 | 0.0726 | inactive
DCLK3 | -0.323 | 0.819 | -0.111 | -0.0306 | -0.117 | inactive
NR2F2 | -0.177 | 0.839 | 0.0875 | 0.0357 | -0.0706 | inactive
PFKL | -0.618 | 0.779 | -0.0988 | 0.0798 | -0.115 | inactive
DLG4 | 0.558 | 0.941 | 0.225 | 0.0461 | 0.13 | inactive
EPHA3 | -0.288 | 0.824 | 0.0505 | 0.0166 | 0.0199 | inactive

In a second layout: entries from further up.
{"Target gene":"NLK","robust z-score, knock-down alone":-0.389,"viability, knock-down alone":0.81,"synergy score with BYL719":-0.00641,"synergy score with cetuximab":-0.0826,"synergy score with trametinib":-0.0661,"outcome":"inactive"}
{"Target gene":"PAK5","robust z-score, knock-down alone":0.989,"viability, knock-down alone":1,"synergy score with BYL719":0.0404,"synergy score with cetuximab":0.0247,"synergy score with trametinib":0.0481,"outcome":"inactive"}
